Laboratory results taken from article PMC9972945.
No constants are given. Whether binding was seen depends on the method and setting. In cells and extracts the contact can be indirect. Some results given as binding are weak or reduced against the parent protein; the word gives no strength.

Sequences of proteins named here, by UniProt entry; tags and fusion partners are left off. Residues count along the entry.
UniProt Q14416, residues 19-872: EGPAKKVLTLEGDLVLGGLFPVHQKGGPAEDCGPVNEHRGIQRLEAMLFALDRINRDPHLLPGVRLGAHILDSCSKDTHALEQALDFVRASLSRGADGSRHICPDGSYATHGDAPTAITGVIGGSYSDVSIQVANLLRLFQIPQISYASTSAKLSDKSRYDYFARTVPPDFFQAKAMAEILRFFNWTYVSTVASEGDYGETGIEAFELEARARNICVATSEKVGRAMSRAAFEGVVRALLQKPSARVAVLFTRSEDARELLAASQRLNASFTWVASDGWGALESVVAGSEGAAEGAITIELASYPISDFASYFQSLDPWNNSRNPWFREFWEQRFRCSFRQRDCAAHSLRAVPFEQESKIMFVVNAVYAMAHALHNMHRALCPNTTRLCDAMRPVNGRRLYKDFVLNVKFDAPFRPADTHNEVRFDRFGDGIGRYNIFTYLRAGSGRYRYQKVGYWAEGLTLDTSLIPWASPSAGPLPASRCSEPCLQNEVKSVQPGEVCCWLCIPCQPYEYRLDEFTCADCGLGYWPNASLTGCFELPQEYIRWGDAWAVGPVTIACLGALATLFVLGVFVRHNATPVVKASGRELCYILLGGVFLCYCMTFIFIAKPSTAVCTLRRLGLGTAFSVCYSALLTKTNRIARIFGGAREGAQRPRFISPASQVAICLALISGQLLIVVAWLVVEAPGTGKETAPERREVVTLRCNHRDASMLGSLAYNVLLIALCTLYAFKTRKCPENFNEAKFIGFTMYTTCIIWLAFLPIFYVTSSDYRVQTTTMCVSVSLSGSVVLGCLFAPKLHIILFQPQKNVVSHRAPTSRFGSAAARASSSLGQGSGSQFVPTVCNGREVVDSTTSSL
UniProt P03524, residues 20-524: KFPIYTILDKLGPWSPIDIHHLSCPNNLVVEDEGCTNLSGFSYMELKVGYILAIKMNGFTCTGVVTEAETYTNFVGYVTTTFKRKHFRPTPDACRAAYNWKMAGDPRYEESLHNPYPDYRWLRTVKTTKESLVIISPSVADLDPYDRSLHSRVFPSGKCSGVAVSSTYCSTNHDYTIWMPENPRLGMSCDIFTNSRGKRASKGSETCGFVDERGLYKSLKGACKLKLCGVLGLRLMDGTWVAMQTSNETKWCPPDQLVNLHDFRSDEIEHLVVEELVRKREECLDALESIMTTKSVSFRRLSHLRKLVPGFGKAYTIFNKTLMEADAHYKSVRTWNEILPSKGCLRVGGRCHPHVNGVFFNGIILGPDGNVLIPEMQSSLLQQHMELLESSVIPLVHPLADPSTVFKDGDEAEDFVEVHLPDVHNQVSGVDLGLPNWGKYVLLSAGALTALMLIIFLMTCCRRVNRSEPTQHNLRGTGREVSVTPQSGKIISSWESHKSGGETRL

Biological target: Flag-tagged mGluR2 protein (mGluR2-Flag) (UniProt Q14416)
Assay: pull-down; only the target purified

## ERA G-Myc (from UniProt P03524 20-524)
  binding: binds
